Laboratory results published in article PMC6796342.
No constants are given. Whether binding was seen depends on the method and setting. In cells and extracts the contact can be indirect. Some entries that bind do so weakly or less than the wild type. Sequences can lack the tags named with a protein.

Protein sequences, listed by entry. Tags and fused reporters are not part of them.
UniProt P46937: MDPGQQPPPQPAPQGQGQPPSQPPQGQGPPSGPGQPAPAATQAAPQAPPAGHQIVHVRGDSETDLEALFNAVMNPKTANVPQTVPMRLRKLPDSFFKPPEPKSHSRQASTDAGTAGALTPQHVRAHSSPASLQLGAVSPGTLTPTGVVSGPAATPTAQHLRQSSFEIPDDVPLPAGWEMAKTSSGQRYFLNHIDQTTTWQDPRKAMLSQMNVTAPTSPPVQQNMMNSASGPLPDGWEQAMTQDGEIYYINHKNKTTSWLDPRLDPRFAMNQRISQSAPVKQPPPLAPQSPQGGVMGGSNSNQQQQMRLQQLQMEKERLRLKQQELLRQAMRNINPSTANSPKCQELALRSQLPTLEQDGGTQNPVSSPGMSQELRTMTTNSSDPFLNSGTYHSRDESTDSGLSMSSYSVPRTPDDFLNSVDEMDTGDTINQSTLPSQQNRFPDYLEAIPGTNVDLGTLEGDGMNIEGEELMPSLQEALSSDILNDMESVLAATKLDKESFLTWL

Target: T1, Flag-MEIS2D (UniProt O14770)
T1 sequence: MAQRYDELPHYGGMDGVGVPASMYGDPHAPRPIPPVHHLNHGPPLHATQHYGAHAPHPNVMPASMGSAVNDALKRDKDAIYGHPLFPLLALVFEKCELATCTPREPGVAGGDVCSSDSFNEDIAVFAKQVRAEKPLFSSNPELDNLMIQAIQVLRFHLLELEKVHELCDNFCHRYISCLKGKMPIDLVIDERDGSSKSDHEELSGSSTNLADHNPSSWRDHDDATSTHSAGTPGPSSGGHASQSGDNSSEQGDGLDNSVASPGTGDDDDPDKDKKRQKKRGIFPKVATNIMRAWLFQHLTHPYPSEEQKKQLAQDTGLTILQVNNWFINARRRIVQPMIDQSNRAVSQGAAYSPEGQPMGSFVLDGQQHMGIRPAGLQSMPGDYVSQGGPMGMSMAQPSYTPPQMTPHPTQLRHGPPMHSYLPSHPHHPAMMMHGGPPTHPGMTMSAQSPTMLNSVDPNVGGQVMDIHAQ
Test: co-IP; HCC-LM3 cells transfected with Flag-MEIS2C or Flag-MEIS2D; lysates sequentially immunoprecipitated; immunoblot with CDC73, β-catenin and YAP antibodies

- binding: binds
Substance: Yes-associated protein (YAP) (from UniProt P46937 1-504)
